From article PMC10665399 come the findings set out here.

By UniProt entry, the sequences of proteins in these tests, tags left out.
UniProt P05198: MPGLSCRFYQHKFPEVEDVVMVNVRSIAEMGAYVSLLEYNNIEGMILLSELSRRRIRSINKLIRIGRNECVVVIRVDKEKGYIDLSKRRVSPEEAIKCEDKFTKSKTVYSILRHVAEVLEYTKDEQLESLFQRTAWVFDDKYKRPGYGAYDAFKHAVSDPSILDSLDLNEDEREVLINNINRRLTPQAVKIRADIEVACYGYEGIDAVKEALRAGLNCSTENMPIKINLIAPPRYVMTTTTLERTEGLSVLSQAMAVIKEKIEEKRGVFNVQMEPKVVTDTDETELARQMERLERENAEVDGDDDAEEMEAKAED
UniProt Q92879: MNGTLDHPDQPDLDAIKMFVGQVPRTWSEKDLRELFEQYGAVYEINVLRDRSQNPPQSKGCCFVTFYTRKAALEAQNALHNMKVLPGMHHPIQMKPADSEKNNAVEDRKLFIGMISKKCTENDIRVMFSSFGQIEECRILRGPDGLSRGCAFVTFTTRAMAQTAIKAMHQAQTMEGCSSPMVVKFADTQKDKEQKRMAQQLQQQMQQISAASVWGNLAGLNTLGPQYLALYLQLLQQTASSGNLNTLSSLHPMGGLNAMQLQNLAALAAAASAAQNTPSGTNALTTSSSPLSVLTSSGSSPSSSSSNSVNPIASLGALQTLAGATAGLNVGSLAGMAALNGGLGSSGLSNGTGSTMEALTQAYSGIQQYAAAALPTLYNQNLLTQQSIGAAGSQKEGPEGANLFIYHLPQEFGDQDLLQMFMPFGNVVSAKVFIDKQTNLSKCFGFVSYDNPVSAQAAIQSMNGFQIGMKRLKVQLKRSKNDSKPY
UniProt Q9H7E9: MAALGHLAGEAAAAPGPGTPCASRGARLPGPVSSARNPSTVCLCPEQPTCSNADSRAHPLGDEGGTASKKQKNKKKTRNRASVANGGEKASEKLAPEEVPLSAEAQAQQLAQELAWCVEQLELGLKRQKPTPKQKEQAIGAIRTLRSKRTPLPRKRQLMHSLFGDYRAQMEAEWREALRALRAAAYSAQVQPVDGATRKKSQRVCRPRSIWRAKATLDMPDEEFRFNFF

These are yes or no findings as the source states them, for the method shown. Binding seen in cells or lysates may run through a third protein. Here binding means that the protein was enriched with, or labelled near, the bait; the list need not be complete. Where a sequence is shown, tags or fusion partners need not be part of it.

The target of this assay is T1, RBM42-APEX2 fusion (biallelic knock-in at the endogenous RBM42 gene, HCT116^RBM42-APEX2) (human) (UniProt Q9BTD8).
T1 sequence: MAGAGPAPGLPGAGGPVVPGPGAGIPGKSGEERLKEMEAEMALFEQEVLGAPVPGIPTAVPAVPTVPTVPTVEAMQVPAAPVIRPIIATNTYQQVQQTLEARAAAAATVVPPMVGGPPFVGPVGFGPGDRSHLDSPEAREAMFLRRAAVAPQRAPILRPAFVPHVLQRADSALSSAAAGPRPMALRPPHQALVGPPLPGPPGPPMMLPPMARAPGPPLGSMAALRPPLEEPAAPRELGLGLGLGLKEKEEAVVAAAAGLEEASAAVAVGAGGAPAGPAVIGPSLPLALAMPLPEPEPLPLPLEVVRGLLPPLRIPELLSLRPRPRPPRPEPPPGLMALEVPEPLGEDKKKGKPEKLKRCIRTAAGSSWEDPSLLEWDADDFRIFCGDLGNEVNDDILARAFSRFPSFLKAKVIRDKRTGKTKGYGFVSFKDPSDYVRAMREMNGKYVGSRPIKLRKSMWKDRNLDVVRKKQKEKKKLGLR
Briefly: proximity labelling; APEX2 knocked in at the C-terminus of endogenous RBM42 in HCT116 cells; DMSO or VP16 (10 µM, 24 h); biotin phenol, then H2O2; biotinylated proteins enriched and analysed by LC-MS/MS against control HCT116 cells.

As to “eukaryotic translation initiation factor 2 subunit 1 (eIF2a) (from UniProt P05198 1-315)”, the binding result is given as “binds”.

Regarding hnRNP K (from UniProt P61978 1-463), the binding result was “binds”.

Consider “CUG binding protein 1 (CUGBP1) (from UniProt Q92879 1-486)”, for which the binding result was “binds”.

As for C8orff33 (from UniProt Q9H7E9 1-229), the binding result was “binds”.

B1: LSM4 (protein, UniProt Q9Y4Z0 1-139)
chain: MLPLSLLKTAQNHPMLVELKNGETYNGHLVSCDNWMNINLREVICTSRDGDKFWRMPECYIRGSTIKYLRIPDEIIDMVKEEVVAKGRGRGGLQQQKQQKGRGMGGAGRGVFGGRGRGGIPGTGRGQPEKKPGRQAGKQ
On to B1, for which the binding entry is recorded as “binds”.
